Reference: patent US20060088847A1
Results are given in words; binding and its absence hold for the method and conditions named. For some assays here: In cells and extracts the contact can be indirect. Some entries that bind do so weakly or less than the wild type. One block for each substance: values may come before it.

Chains of the proteins cited; added tags and fusions are not shown. Lines headed by an entry give the natural chain unless they say otherwise; changes in a name come on top. Residues count along the entry.
UniProt Q8N726: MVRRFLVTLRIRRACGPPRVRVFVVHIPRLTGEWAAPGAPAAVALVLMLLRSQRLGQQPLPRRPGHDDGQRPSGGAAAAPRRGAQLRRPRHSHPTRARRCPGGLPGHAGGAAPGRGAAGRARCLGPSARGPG
GST-N-ARF, the N terminus of ARF protein (1-64): residues 1-64 of Q8N726
UniProt P06748: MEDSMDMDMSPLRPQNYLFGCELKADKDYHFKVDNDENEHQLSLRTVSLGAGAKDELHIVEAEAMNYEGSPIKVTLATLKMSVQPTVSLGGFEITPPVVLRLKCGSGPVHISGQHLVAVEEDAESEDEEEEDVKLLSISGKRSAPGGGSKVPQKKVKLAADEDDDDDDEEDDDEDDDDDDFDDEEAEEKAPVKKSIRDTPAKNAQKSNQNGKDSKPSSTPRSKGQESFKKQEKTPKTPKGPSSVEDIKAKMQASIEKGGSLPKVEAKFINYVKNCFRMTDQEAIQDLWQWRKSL

Experiments:
[1] = biological target: GST-N-ARF, the N terminus of ARF protein (1-64) (UniProt Q8N726); assay: GST pull-down with 35S-labeled in vitro translated protein
GST-p53 protein = GST-p53 protein (UniProt P04637); assay: as above
[2] = biological target: wild-type GST-ARF full-length protein (UniProt Q8N726); assay: as above
[3] = biological target: endogenous ARF-BP1 (ARF-binding protein 1) (human) (UniProt Q7Z6Z7); assay: co-immunoprecipitation with anti-ARF-BP1 specific antibody, Western blot
[4] = biological target: endogenous ARF-BP1 (ARF-binding protein 1) (human) (UniProt Q7Z6Z7); assay: co-immunoprecipitation of endogenous proteins from U2OS cell extracts, Western blot
endogenous ARF (human) [5] = biological target: endogenous ARF (human) (UniProt Q8N726); assay: co-immunoprecipitation with anti-ARF polyclonal antibody, Western blot
endogenous p53 (human) [6] = biological target: endogenous p53 (human) (UniProt P04637); assay: co-immunoprecipitation with p53 monoclonal antibody DO-1, Western blot
endogenous p53 (human) [7] = biological target: endogenous p53 (human) (UniProt P04637); assay: co-immunoprecipitation of endogenous proteins from U2OS cell extracts, Western blot
endogenous ARF (human) [8] = biological target: endogenous ARF (human) (UniProt Q8N726); assay: co-immunoprecipitation of endogenous proteins from H1299 cell extracts, Western blot
[9] = biological target: HA-ARF-Flag, double-tagged human ARF protein containing a N-terminal HA- and C-terminal FLAG epitope (human) (UniProt Q8N726); assay: tandem Flag/HA affinity purification from H1299 nuclear extract, SDS-PAGE, silver staining
FLAG-B23 [10] = biological target: FLAG-B23 (UniProt P06748); assay: co-immunoprecipitation with M2 beads from 293 cells transfected with Flag-B23, Western blot
FLAG-B23 [11] = biological target: FLAG-B23 (UniProt P06748); assay: immunoprecipitation with anti-FLAG M2 beads from FLAG-B23 cells, Western blot with anti-ARF-BP1 antibody
[12] = biological target: endogenous ARF-BP1 (ARF-binding protein 1) (human) (UniProt Q7Z6Z7); assay: co-immunoprecipitation with ARF-BP1-specific antibody, Western blot
[13] = biological target: endogenous ARF-BP1 (ARF-binding protein 1) (human) (UniProt Q7Z6Z7); assay: co-immunoprecipitation of endogenous proteins from H1299 cell extracts, Western blot

binding [1]: binds | binding (GST-p53 protein): binds | binding [2]: binds
Substance: in vitro translated 35S-labeled ARF-BP1 (1015-4374) (from UniProt Q7Z6Z7 1015-4374) (enzyme)

binding [3]: binds | binding [4]: binds
Substance: endogenous p53 (from UniProt P04637 1-393)

binding (endogenous ARF (human) [5]): binds | binding (endogenous p53 (human) [6]): binds | binding (endogenous p53 (human) [7]): binds | binding (endogenous ARF (human) [8]): binds | binding [9]: binds | binding (FLAG-B23 [10]): binds | binding (FLAG-B23 [11]): binds
Substance: endogenous ARF-BP1 (ARF-binding protein 1) (from UniProt Q7Z6Z7 1-4374) (enzyme)

binding [12]: binds | binding [13]: binds
Substance: endogenous ARF (from UniProt Q8N726 1-132)
